Assay results as given in paper PMC8640094, “Diaportones A–C: Three New Metabolites From Endophytic Fungus Diaporthe foeniculina BZM-15” (Frontiers in Chemistry, 2021).

Test system: SF-268 (CNS cancer)
Assay: MTT cytotoxicity assay, SF-268 cells
Assay type: cell-based, human
Details: IC50 for LX-2 cell line/IC50 for SF286 cell line
Protocol: The cytotoxicity of all compounds against three human tumor cell lines, SF-268 (CNS cancer), MCF-7 (breast cancer), and HepG2 (hepatoma cancer), and normal cell line LX-2 was tested using the MTT assay. Adriamycin was used as a positive control. All cells were seeded into 96-well plates at 5 × 10^4 cells/ml and incubated at 37°C under a 5% CO2 atmosphere for 24 h. Then, the tested compounds were added. After 72 h, MTT solution was added into each well, which was further incubated. The cell-free supernatant was removed and formazan crystals were subsequently dissolved in DMSO. Optical density (OD) was recorded at 490 nm on a microplate reader to calculate the IC50 values.

Compound: CC(C)[C@@H](C)C=C[C@@H](C)[C@H]1CC[C@@]2(O)C3=CC(=O)C4=CC(=O)CC[C@]4(C)[C@H]3CC[C@]12C [compound 8, 14α-hydroxyergosta-4,7,22-triene-3,6-dione]
- SI Values (safety index): >5
